# Some of the results follow. These are raw signals, not scaled to a control.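 First-pass screen: polymyxin B was added at a level that permeabilizes the Salmonella outer membrane while sparing the inner membrane. DMSO wells, with and without polymyxin B, defined maximum growth. Because plates differed from one another, each plate's data were ranked separately and the compounds with the lowest OD600 were carried forward as hits.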
# Test system: Salmonella enterica serovar Typhimurium SL1344
# Assay: bacterial growth OD600 after 18 h with compound and polymyxin B; higher = more bacterial growth (less inhibition)
# Conditions: 50 µM, Mueller-Hinton broth
SMILES,bacterial growth OD600 (polymyxin B 0.75 µg/mL),bacterial growth OD600 (polymyxin B 1 µg/mL)
O=C(CCCn1cncn1)N1CCOC(Cc2ccccc2)C1 (configuration not stated),0.923,
Cc1oc(-c2ccc(NC(=O)Cc3ccccc3)cc2)nc1CNC(=O)CCc1ccccc1Cl,0.853,
Cc1ccc(Oc2ncccc2CNC(=O)C2CCOCC2)cn1,,1.03
Oc1cccc(CN2CCOc3ccc(C(O)Cc4ccccc4)cc3C2)c1 (configuration not stated),0.736,
COc1ccc(Cc2noc(CN(C)CCc3ccccc3)n2)cc1OC,,0.877
C=C(C)[C@@H]1CC=C(CN2CCC(N3CCC(C(=O)N4CCCC4)CC3)CC2)CC1,0.829,
CC(C)CN(C)C(=O)c1coc(COc2cccc(C(F)(F)F)c2)n1,,0.85
CN(C)C(=O)c1ccc(N2CCC(NCCC(c3ccc(F)cc3)c3ccco3)CC2)cc1 (configuration not stated),0.656,
O=C(Cc1ccc(Cl)cc1)N1CCC(C2(c3ccccn3)NC(=O)N(CC3CCCO3)C2=O)CC1 (configuration not stated),0.846,
COCC1CCCCN1C(=O)c1oc2ccc(C)cc2c1C (configuration not stated),,0.699
Cc1cccc(N2CCN(C(=O)c3cn(C4CC4)cc(C(=O)NCc4ccccc4)c3=O)CC2)c1C,0.002,
COc1ccc(S(=O)(=O)NCC2CCCN(C(=O)CSc3ccccc3)C2)cc1 (configuration not stated),,0.929
CSc1cccc(CN2CC[C@@H](N3CCN(CCc4ccccc4)CC3)[C@H](O)C2)c1,,1.17
COc1cc(OC)c2nc(-c3cc4c(c(OC)c3)OCCN(C(=O)Cn3nc(C)cc3C)C4)cc(C)c2c1,0.841,
CCn1cc(CNC2CCCN(Cc3ccccc3F)C2)c(C)n1 (configuration not stated),0.995,
Cc1cccc(C)c1OCc1cc(C(=O)N2CCN(C)C(=O)[C@@H]2C)no1,,0.952

SMILES,bacterial growth OD600 (polymyxin B 0.75 µg/mL),bacterial growth OD600 (polymyxin B 1 µg/mL)
O=C(CCc1nnc(CCc2c[nH]c3ccccc23)o1)N1CCCCCC1,,0.935
Cn1cc(CCC(=O)NC2CC(=O)N(CCc3cccc(Cl)c3)C2)cn1 (configuration not stated),,0.891
Cc1nc(N2CCCCCCC2)ncc1C(C)NC(=O)c1ccnn1C (configuration not stated),,0.873
OCCOc1cccc(CNC2CCCN(CC3CCCCC3)C2)c1 (configuration not stated),,1.13
COc1cc(-c2nc(CN(CCO)Cc3ccccc3)c(C)o2)ccc1F,,0.686
Cc1c(CC(=O)NCC2CC2)c2c(n1Cc1ccccc1)CCCC2=O,,1.22
COc1cccc2c1OCC(CN(C)CC1CCN(Cc3ccc(C)o3)CC1)=C2,,0.834
O=C(c1cc(F)c(F)cc1F)N1CCCC(N2CCN(c3ccc(F)cc3)CC2)C1 (configuration not stated),,0.908
Cc1noc(C)c1CC(=O)N1CCCC(Nc2ccc(F)c(F)c2)C1 (configuration not stated),,0.937
CCN(Cc1nccn1C)C(=O)c1ccc(N2CCCC(OC)C2)nc1 (configuration not stated),,1.01
CCC1C(=O)NCCN1C(=O)CCc1nnc(Cc2cccc(C(F)(F)F)c2)o1 (configuration not stated),,0.855
COc1cccc(CCC2CCCN(C(=O)c3csc(C)n3)C2)c1 (configuration not stated),0.872,
Clc1cccc(-c2noc(CN3CCCC(c4ccccc4)C3)n2)c1 (configuration not stated),,0.333
O=C(NCCc1cnn(-c2ccccc2)c1)C1CCC(=O)N(CCc2ccccn2)C1 (configuration not stated),,1.22
O=C(CCn1cccn1)N1CCCC(CCc2ccccc2F)C1 (configuration not stated),0.465,
CC(C)CCCC1CN(C(=O)CCN2CCCC2=O)CCO1 (configuration not stated),,0.899

# Shown with bars between the fields: entries from further up.
SMILES | bacterial growth OD600 (polymyxin B 0.75 µg/mL) | bacterial growth OD600 (polymyxin B 1 µg/mL)
O=C(CCc1nnc(CCc2c[nH]c3ccccc23)o1)N1CCCCCC1 |  | 0.935
COc1cc(-c2nc(CN(CCO)Cc3ccccc3)c(C)o2)ccc1F |  | 0.686
CCN(Cc1nccn1C)C(=O)c1ccc(N2CCCC(OC)C2)nc1 (configuration not stated) |  | 1.01
